Test results as given in the supplement of paper PMC10849652.
Some of the results follow.

Sequences of proteins named here, by UniProt entry; tags and fusion partners are left off. A change or cut given only in a name is not applied to a line headed by its entry.
UniProt Q0VDG4: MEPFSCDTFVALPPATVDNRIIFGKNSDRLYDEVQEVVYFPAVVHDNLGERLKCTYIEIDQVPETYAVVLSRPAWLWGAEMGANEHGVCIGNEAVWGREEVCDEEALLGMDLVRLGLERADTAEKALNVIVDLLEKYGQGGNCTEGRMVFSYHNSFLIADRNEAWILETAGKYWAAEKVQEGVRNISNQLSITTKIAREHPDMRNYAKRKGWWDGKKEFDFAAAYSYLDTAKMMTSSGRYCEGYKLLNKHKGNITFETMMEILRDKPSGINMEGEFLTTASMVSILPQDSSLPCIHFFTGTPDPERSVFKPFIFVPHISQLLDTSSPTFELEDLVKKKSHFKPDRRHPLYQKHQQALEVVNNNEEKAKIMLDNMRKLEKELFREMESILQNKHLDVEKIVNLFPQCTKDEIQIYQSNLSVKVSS
UniProt Q9UHR5: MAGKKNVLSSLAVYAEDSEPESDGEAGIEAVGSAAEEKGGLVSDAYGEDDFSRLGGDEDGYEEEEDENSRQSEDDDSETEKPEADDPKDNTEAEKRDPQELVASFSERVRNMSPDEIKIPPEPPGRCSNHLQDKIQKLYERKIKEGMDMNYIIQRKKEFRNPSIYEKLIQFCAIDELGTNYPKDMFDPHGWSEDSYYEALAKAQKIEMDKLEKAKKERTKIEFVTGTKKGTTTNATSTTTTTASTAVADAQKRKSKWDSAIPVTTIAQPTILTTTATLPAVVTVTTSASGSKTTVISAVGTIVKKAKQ
UniProt O75396: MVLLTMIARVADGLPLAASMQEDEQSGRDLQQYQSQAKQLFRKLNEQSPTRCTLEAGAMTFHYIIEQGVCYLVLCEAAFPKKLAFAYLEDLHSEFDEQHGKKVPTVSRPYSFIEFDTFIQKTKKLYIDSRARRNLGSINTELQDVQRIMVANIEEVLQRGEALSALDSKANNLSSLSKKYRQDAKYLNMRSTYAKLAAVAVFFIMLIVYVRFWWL
UniProt Q9NTJ5: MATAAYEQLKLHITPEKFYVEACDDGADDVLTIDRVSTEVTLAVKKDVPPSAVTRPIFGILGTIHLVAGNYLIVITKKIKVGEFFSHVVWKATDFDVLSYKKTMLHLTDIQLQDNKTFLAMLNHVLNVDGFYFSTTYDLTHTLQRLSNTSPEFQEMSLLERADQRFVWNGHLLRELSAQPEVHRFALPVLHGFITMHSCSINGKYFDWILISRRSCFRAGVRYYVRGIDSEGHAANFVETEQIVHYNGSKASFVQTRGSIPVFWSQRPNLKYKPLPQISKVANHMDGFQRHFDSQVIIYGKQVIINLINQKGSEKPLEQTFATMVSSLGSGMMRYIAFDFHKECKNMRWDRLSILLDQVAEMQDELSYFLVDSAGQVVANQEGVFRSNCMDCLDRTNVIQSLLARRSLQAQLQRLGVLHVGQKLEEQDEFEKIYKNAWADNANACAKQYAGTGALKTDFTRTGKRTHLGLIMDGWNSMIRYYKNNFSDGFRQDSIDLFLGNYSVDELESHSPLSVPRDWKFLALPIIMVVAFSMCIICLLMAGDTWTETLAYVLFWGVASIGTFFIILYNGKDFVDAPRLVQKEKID
UniProt P25815: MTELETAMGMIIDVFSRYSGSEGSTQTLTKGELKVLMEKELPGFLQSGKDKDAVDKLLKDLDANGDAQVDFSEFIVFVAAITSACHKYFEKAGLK
UniProt P60468, whole entry, looked up: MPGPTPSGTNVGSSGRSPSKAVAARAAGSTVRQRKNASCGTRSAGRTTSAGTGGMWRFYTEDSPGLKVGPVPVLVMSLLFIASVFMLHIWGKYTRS
UniProt Q96HI0: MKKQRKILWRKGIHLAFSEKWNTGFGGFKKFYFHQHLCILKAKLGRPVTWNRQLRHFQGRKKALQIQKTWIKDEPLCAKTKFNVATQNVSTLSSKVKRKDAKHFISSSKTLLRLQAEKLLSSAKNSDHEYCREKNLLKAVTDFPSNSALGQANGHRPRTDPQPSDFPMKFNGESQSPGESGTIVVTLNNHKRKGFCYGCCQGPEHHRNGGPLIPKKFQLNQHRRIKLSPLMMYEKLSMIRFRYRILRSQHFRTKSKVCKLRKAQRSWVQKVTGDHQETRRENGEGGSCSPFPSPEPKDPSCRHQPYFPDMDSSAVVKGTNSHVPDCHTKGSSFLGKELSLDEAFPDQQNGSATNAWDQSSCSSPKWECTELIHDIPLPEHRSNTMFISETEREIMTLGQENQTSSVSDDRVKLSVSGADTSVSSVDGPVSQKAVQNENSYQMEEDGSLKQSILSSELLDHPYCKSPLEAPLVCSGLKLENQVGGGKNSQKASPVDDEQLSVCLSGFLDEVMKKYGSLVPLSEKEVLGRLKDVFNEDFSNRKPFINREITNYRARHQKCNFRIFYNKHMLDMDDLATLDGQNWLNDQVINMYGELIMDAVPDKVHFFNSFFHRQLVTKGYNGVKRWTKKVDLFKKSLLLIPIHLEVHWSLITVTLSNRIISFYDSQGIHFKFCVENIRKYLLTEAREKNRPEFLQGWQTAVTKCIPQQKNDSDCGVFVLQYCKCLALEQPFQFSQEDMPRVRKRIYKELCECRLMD
UniProt Q9BQE4, whole entry, looked up: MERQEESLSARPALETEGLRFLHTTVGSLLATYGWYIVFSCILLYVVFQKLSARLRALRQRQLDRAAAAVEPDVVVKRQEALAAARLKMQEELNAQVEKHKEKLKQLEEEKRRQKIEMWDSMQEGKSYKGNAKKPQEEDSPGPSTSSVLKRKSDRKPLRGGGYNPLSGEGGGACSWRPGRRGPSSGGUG
UniProt Q12770: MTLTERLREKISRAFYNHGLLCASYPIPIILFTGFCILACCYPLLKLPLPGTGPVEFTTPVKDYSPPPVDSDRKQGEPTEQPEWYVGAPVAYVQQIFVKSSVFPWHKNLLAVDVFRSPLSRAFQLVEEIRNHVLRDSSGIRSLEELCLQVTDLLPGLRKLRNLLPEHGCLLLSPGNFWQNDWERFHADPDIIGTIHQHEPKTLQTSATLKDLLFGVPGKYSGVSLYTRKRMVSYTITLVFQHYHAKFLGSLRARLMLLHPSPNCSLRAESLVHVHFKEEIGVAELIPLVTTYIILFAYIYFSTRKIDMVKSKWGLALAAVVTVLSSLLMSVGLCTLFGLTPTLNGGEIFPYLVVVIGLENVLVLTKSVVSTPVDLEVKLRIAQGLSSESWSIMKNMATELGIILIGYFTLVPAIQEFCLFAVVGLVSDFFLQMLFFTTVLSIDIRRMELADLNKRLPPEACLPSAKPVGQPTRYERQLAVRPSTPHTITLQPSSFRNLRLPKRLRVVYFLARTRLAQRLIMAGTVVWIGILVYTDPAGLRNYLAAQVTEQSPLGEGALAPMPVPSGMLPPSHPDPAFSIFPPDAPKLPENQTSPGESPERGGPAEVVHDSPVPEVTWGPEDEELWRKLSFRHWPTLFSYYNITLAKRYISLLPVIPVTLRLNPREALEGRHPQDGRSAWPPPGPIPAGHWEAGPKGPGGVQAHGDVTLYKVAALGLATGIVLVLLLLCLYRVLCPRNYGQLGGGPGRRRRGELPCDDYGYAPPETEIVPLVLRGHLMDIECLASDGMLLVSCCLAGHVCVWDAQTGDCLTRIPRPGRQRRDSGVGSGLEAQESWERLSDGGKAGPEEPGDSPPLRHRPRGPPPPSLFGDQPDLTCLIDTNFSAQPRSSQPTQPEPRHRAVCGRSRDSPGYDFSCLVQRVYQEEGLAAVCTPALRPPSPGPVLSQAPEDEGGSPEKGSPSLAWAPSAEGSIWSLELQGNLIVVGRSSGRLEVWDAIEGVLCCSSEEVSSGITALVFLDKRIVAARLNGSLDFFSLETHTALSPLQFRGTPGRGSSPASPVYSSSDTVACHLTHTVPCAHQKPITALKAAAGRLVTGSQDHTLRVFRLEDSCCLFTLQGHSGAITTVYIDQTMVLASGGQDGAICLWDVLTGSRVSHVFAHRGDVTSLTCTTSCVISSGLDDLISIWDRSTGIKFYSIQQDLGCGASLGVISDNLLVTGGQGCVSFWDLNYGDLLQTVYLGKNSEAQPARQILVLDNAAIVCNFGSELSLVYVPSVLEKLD
UniProt O95487: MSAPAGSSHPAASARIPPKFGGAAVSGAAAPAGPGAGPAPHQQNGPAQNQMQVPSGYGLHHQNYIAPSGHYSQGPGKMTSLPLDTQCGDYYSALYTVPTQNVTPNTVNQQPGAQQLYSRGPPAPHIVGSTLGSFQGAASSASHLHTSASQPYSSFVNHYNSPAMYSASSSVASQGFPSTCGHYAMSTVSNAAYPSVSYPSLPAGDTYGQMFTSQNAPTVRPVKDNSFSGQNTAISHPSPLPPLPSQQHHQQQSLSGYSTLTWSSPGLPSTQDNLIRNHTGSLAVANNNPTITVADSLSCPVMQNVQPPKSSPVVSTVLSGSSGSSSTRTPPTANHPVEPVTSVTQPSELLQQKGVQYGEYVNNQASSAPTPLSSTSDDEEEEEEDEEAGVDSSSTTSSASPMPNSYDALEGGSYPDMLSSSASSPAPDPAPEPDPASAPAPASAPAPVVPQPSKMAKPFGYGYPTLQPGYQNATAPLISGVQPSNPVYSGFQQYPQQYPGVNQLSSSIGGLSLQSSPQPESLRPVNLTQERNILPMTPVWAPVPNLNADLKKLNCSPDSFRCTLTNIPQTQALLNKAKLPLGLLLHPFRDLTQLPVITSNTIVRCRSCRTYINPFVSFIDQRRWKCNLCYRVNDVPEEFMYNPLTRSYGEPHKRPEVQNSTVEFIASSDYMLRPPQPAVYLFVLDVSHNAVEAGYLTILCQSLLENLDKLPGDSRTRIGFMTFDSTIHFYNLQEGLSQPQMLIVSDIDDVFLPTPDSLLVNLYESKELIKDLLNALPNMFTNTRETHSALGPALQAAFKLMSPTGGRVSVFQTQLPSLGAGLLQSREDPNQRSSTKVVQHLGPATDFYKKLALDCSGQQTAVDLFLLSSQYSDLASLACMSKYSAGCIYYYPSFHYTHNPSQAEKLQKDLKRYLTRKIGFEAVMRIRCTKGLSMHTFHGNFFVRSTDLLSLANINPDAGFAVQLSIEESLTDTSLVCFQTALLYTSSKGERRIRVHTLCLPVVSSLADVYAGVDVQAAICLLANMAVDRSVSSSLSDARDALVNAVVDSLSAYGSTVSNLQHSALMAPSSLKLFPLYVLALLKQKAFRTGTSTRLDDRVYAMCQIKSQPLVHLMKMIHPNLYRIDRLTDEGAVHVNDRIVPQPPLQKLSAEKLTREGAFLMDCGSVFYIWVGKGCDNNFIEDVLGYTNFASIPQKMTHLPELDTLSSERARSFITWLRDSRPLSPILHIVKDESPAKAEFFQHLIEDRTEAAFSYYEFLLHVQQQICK
UniProt Q9Y6D0, whole entry, looked up: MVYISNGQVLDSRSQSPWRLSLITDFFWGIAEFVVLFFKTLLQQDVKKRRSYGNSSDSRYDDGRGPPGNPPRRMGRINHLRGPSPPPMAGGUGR
UniProt Q9Y3Z3: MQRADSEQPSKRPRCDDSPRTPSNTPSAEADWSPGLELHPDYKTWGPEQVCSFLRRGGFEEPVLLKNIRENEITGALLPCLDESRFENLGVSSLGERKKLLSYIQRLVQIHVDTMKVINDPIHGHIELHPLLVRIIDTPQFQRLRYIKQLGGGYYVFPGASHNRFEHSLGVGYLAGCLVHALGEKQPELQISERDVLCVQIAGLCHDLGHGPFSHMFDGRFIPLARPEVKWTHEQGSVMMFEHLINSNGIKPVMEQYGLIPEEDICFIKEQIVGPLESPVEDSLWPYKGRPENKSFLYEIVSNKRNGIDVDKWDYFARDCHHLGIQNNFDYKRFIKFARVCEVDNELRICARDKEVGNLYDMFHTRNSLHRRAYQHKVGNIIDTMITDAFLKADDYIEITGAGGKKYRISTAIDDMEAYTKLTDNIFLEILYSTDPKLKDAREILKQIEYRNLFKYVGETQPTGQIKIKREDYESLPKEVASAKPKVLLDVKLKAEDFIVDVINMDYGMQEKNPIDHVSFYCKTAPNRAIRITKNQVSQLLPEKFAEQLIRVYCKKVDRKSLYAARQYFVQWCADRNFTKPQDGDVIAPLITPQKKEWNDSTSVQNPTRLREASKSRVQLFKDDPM
UniProt Q9HD40: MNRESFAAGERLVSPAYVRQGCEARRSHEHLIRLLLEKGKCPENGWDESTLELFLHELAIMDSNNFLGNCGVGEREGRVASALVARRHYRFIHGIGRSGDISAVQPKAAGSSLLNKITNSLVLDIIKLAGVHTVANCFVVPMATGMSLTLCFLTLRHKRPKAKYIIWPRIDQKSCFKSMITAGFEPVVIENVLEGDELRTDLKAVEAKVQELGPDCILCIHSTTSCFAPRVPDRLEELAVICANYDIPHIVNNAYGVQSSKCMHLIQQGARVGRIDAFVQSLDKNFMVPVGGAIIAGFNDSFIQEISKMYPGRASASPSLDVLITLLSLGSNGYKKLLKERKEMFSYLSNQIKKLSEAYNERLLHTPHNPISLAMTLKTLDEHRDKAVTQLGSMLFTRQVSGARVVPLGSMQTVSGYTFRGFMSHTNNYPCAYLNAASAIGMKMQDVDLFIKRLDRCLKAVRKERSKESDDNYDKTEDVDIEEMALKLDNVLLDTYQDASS

What was measured:
Assay in all cases: log2 fold change, soluble protein after heating vs DMSO (PISA); higher = thermal stabilisation; K562 lysate, 10 uM; active = over 0.2 and 3.5 SD of the protein, either way, in both replicates (recomputed)
[1] = compound: NCC(=O)Nc1ccc(-n2nc(C(F)(F)F)cc2-c2ccc3c(ccc4ccccc43)c2)cc1
Method in brief: (§1)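 Pellets of K562 cells were dounce-homogenised in PBS pH 7.4 with 1 mM MgCl2, and the crude extract was held at 1 mg/mL protein for a 30 min treatment with 10 μM compound. Aliquots were heated for 3 min over 48°C-58°C and pooled before NP-40 was added to 0.5% at 4°C. The supernatant from 21,000xg for 90 min was quantified by TMTpro 16plex LC-MS/MS with channel sums equalised. Values are reported from duplicates as log-two fold change in thermal stability relative to solvent controls.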

vorinostat = compound: O=C(CCCCCCC(=O)Nc1ccccc1)NO [vorinostat]
Method in brief: as §1

silmitasertib = compound: O=C(O)c1ccc2c(c1)nc(Nc1cccc(Cl)c1)c1ccncc12 [silmitasertib]
Method in brief: as §1

[2] = compound: O=C1NC(=O)C(c2cnc3ccccn23)=C1c1cn2c3c(cc(F)cc13)CN(C(=O)N1CCCCC1)CC2
Method in brief: as §1

entospletinib = compound: c1cn2cc(-c3ccc4cn[nH]c4c3)nc(Nc3ccc(N4CCOCC4)cc3)c2n1 [entospletinib]
Method in brief: as §1

Measured: log2 fold change

SDCBP (UniProt O00560)
inactive: [1] 0.004 | vorinostat 0.093 | silmitasertib -0.044 | [2] 0.08 | entospletinib 0.028

SEC24C (UniProt P53992)
inactive: [1] 0.01 | vorinostat -0.19 | silmitasertib 0.006 | [2] 0.012 | entospletinib -0.009

SDHC (UniProt Q99643)
inactive: [1] -0.046 | vorinostat -0.196 | silmitasertib 0.048 | [2] -0.071 | entospletinib 0.088

SCRN3 (UniProt Q0VDG4)
inactive: [1] -0.019 | vorinostat 0.104 | silmitasertib -0.047 | [2] -0.005 | entospletinib 0.027

Retrieved one by one from the entries so far, 2 records:
SDCBP (UniProt O00560)
inactive: [1] 0.004 | vorinostat 0.093 | silmitasertib -0.044 | [2] 0.08 | entospletinib 0.028

SEC24C (UniProt P53992)
inactive: [1] 0.01 | vorinostat -0.19 | silmitasertib 0.006 | [2] 0.012 | entospletinib -0.009

Further entries.

SEL1L (UniProt Q9UBV2)
inactive: [1] 0.023 | vorinostat 0.083 | silmitasertib 0.031 | [2] 0.016 | entospletinib -0.012

SAP30BP (UniProt Q9UHR5)
inactive: [1] -0.06 | vorinostat 0.094 | silmitasertib -0.014 | [2] 0.011 | entospletinib 0.005

SEC16A isoform 5 (UniProt O15027)
active: vorinostat -0.281
inactive: [1] 0.053 | silmitasertib 0.008 | [2] -0.029 | entospletinib -0.015

SEC22B (UniProt O75396)
inactive: [1] -0.055 | vorinostat 0.109 | silmitasertib 0.021 | [2] 0.011 | entospletinib -0.07

SACM1L (UniProt Q9NTJ5)
inactive: [1] -0.094 | vorinostat -0.053 | silmitasertib 0.046 | [2] 0 | entospletinib 0.007

SEC61A2 (UniProt Q9H9S3)
inactive: [1] 0 | vorinostat 0.15 | silmitasertib -0.045 | [2] -0.043 | entospletinib 0.049

SELENOF (UniProt O60613)
inactive: [1] -0.096 | vorinostat 0.158 | silmitasertib -0.01 | [2] 0.02 | entospletinib -0.022

S100P (UniProt P25815)
inactive: [1] -0.083 | vorinostat 0.173 | silmitasertib -0.102 | [2] 0.046 | entospletinib -0.081

SEC61B (UniProt P60468)
inactive: [1] -0.04 | vorinostat 0.145 | silmitasertib 0.047 | [2] -0.158 | entospletinib 0.017

SENP5 (UniProt Q96HI0)
inactive: [1] 0.036 | vorinostat -0.185 | silmitasertib 0.151 | [2] 0.002 | entospletinib 0.036

SBNO2 (UniProt Q9Y2G9)
inactive: [1] 0.126

SELENOS (UniProt Q9BQE4)
inactive: [1] -0.019 | vorinostat 0.009 | silmitasertib -0.084 | [2] 0.029 | entospletinib 0.006

SAMD4A (UniProt Q9UPU9)
inactive: [1] -0.038 | silmitasertib 0.027 | [2] 0.014 | entospletinib -0.053
active: vorinostat -0.647

SCAP (UniProt Q12770)
inactive: [1] 0.029 | vorinostat 0.07 | silmitasertib -0.02 | [2] 0.07 | entospletinib -0.038

SEC24B isoform 3 (UniProt O95487)
inactive: [1] 0.004 | vorinostat -0.162 | silmitasertib 0.029 | [2] -0.016 | entospletinib 0.019

SELENOK (UniProt Q9Y6D0)
inactive: [1] -0.192

SCD (UniProt O00767)
inactive: [1] -0.045 | vorinostat 0.021 | silmitasertib -0.057 | [2] -0.028 | entospletinib 0.017

SAMHD1 (UniProt Q9Y3Z3)
active: vorinostat -0.352
inactive: [1] -0.012 | silmitasertib -0.002 | [2] 0.032 | entospletinib 0.031

SEMA4B (UniProt Q9NPR2)
inactive: [1] -0.538 | vorinostat 0.187 | silmitasertib -0.065 | [2] -0.112 | entospletinib 0.102

SDHB, A0A087WWT1
inactive: [1] -0.079 | vorinostat -0.094 | silmitasertib -0.293 | [2] -0.036 | entospletinib 0.12

SATB2 (UniProt Q9UPW6)
active: vorinostat -0.347
inactive: [1] 0 | silmitasertib 0.051 | [2] -0.024 | entospletinib 0.036

SEPSECS (UniProt Q9HD40)
inactive: [1] -0.006 | vorinostat 0.122 | silmitasertib -0.002 | [2] -0.005 | entospletinib -0.038
